The record followed here is the supplement of paper PMC10849652.

The list shows a part of the results.

Compound in the first assay: CC1=C(C=C(C=C1)NC(=O)C2=CC(=CC=C2)C(C)(C)C#N)NC3=CC4=C(C=C3)N=CN(C4=O)C
Briefly: log2 fold change, soluble protein after heating vs DMSO (PISA); higher = thermal stabilisation; K562 cells, 10 uM, 30 min; active = over 0.2 and 3.5 SD of the protein, either way, in both replicates (recomputed). Put shortly:
(§1)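 Soluble protein was quantified by TMTpro 16plex LC-MS/MS after channel sums were equalised. It was obtained as the supernatant after 21,000xg for 90 min from pooled aliquots of K562 cells (2×10^6 cells/mL, 10 μM compound, 30 min) heated for 3 min across 48°C-58°C and extracted in PBS with 0.5% NP-40 at 4°C. Thermal stability values are relative to control samples and come from duplicates. They are given as log2 fold changes.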
As for PRNP (UniProt P04156), the log2 fold change is inactive: -0.001.

Take PRR12 (UniProt Q9ULL5): the log2 fold change was inactive: -0.012.

On to PRF1 (UniProt P14222), for which the log2 fold change is inactive: 0.07.

Take PPP1R21 (UniProt Q6ZMI0): the log2 fold change was inactive: 0.066.

As for PRR3 (UniProt P79522), the log2 fold change is inactive: 0.127.

As for PRADC1 (UniProt Q9BSG0), the log2 fold change was inactive: 0.012.

PRIMPOL (UniProt Q96LW4): the log2 fold change was inactive: 0.007.

On to PRKD2 (UniProt M0R346), for which the log2 fold change is inactive: -0.011.

PPP2R1B (UniProt H0YDG7): the log2 fold change was inactive: -0.45.

On to PROSER3, A0A2R8Y8D9, for which the log2 fold change is inactive: -0.116.

Compound in the next assay: CC1=C(C=C(C=C1)NC(=O)C2=CC(=CC=C2)N(C)C)NC(=O)C3=CC=C(C=C3)O
Described as above. Put shortly: as §1
Consider PRDM2 (UniProt Q13029), for which the log2 fold change is inactive: 0.002.

On to PPP1R3D (UniProt O95685), for which the log2 fold change was inactive: -0.024.

Regarding PRRG1 (UniProt O14668), the log2 fold change is inactive: 0.004.

Consider PPP2R5C isoform 2 (UniProt Q13362), for which the log2 fold change is inactive: -0.047.

Turning to PRKCSH isoform 2 (UniProt P14314), the log2 fold change was inactive: -0.185.

For the target PRR4 (UniProt Q16378), the log2 fold change was inactive: -0.081.

For PPP1R16A (UniProt Q96I34), the log2 fold change is inactive: -0.126.

Consider PRMT6 (UniProt Q96LA8), for which the log2 fold change is inactive: -0.084.

Compound in the next assay: CC1=CC=C(C=C1)SC2=C3C=C(SC3=CN=C2)C(=O)N
The assay is described as above. Put shortly: as §1
Turning to PRPF39 (UniProt Q86UA1), the log2 fold change was inactive: -0.007.

Take PRDM2 (UniProt Q13029): the log2 fold change is inactive: 0.139.

As for PRG2 (UniProt P13727), the log2 fold change was inactive: -0.116.

Turning to PRRG1 (UniProt O14668), the log2 fold change is inactive: 0.004.

For PROSER3 (UniProt Q2NL68), the log2 fold change is inactive: -0.125.

Take PPP1R13L (UniProt Q8WUF5): the log2 fold change is inactive: -0.091.

With PRF1 (UniProt P14222), the log2 fold change is inactive: 0.051.

PRELID3B (UniProt Q9Y3B1): the log2 fold change is inactive: 0.081.

On to PPP1R21 (UniProt Q6ZMI0), for which the log2 fold change was inactive: -0.043.

With PRR14L (UniProt Q5THK1), the log2 fold change was inactive: -0.039.

In the case of PPP2R5B (UniProt Q15173), the log2 fold change was inactive: -0.131.

As to PRIMPOL (UniProt Q96LW4), the log2 fold change was inactive: 0.115.

PRMT6 (UniProt Q96LA8): the log2 fold change was inactive: 0.033.

Compound in the next assay: CC1=NC(=CC=C1)C2=C(N=C(N2)C(C)(C)C)C3=CC4=NC=CN=C4C=C3
The description is as above. The essentials: as §1
PRDM2 (UniProt Q13029): the log2 fold change is inactive: -0.111.

Regarding PPP1R3D (UniProt O95685), the log2 fold change was inactive: 0.023.

As for PRG2 (UniProt P13727), the log2 fold change is inactive: -0.082.

As to PRRG1 (UniProt O14668), the log2 fold change is inactive: 0.144.

Regarding PPTC7 (UniProt Q8NI37), the log2 fold change is inactive: -0.15.

For PPP2R5C isoform 2 (UniProt Q13362), the log2 fold change was inactive: 0.022.

Regarding PRKCSH isoform 2 (UniProt P14314), the log2 fold change was inactive: 0.057.

Turning to PRR4 (UniProt Q16378), the log2 fold change was inactive: -0.163.

For PRELID2 (UniProt Q8N945), the log2 fold change is inactive: -0.086.

As for PRR3 (UniProt P79522), the log2 fold change is inactive: -0.045.

Regarding PRADC1 (UniProt Q9BSG0), the log2 fold change is inactive: -0.554.

As to PRMT6 (UniProt Q96LA8), the log2 fold change is inactive: 0.132.
